Experimental data taken from publication PMC11876615.
No constants are given. Whether binding was seen depends on the method and setting. In cells and extracts the contact can be indirect. Here binding means that the protein was enriched with, or labelled near, the bait; the list need not be complete. Sequences can lack the tags named with a protein.

The chains behind the UniProt entries cited, without tags or fusion partners.
UniProt P19474: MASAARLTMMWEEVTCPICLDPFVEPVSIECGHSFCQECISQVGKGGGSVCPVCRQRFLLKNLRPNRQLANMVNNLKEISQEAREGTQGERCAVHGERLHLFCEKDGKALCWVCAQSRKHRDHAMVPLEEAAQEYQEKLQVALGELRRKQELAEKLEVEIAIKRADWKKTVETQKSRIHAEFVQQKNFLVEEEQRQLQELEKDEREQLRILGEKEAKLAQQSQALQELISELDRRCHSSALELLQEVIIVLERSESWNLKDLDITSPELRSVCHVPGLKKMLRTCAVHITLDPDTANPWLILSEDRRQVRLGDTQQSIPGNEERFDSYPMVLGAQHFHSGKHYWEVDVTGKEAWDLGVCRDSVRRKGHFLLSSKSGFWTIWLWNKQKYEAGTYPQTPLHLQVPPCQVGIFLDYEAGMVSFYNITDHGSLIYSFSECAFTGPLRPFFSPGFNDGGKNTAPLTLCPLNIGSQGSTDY

Target: T1, Flag-tagged hSPAR (human small regulatory polypeptide of amino acid response) (human)
T1 sequence: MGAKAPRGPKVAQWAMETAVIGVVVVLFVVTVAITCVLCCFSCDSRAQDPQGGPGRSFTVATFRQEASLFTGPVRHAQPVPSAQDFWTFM
Test: affinity purification with mass spectrometry; hSPAR Co-IP from MDA-MB-231 cells; samples resolved by SDS-PAGE, silver stained, bands uniquely present in the hSPAR Co-IP excised and analysed by mass spectrometry

binding: binds
Substance: Tripartite motif-containing 21 (TRIM21) (from UniProt P19474 1-475)
